Data reported in the supplement of paper PMC10849652.
Some of the results follow.

Sequences of proteins named here, by UniProt entry; tags and fusion partners are left off. A change or cut given only in a name is not applied to a line headed by its entry.
UniProt Q99543: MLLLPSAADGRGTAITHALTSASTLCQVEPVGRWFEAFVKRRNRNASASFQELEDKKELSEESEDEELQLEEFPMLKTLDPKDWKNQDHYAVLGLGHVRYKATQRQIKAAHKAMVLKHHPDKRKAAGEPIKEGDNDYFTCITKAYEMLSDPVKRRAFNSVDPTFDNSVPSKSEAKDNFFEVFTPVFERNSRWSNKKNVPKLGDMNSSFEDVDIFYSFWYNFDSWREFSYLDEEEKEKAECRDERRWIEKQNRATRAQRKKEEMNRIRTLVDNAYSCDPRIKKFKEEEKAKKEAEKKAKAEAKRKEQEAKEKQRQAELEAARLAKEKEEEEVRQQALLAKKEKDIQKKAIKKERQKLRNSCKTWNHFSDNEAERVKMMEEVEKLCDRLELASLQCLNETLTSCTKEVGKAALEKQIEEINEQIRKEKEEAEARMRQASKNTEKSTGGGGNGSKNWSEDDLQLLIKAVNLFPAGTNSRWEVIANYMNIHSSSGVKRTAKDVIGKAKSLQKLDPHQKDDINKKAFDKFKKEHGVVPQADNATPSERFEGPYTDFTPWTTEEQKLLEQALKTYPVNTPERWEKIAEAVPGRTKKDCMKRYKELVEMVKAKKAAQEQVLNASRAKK
UniProt O95620: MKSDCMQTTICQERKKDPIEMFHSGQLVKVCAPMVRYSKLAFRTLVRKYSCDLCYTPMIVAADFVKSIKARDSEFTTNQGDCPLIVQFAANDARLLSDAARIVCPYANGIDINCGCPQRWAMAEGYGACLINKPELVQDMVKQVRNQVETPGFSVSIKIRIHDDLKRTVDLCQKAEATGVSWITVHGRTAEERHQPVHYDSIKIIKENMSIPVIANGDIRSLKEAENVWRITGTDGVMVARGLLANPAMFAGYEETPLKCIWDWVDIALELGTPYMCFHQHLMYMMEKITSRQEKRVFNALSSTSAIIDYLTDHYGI
UniProt Q6ZPD9: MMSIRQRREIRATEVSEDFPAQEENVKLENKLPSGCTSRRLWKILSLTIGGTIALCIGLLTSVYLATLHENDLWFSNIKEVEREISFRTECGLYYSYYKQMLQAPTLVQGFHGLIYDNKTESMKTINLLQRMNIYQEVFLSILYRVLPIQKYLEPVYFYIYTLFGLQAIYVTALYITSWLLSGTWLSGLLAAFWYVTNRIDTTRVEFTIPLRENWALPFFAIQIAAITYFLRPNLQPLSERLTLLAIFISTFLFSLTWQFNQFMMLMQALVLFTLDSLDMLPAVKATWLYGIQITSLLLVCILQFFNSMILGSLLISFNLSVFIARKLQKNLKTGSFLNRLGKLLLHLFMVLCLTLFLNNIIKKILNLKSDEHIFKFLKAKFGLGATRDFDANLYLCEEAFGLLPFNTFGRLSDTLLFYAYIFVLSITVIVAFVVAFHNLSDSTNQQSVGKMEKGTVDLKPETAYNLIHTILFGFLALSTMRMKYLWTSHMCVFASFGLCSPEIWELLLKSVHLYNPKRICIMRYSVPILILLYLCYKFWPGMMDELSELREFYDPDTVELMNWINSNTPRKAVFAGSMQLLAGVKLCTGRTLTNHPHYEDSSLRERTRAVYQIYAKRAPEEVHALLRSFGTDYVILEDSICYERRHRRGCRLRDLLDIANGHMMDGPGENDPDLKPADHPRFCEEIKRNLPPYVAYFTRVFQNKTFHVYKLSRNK
UniProt Q86TI2: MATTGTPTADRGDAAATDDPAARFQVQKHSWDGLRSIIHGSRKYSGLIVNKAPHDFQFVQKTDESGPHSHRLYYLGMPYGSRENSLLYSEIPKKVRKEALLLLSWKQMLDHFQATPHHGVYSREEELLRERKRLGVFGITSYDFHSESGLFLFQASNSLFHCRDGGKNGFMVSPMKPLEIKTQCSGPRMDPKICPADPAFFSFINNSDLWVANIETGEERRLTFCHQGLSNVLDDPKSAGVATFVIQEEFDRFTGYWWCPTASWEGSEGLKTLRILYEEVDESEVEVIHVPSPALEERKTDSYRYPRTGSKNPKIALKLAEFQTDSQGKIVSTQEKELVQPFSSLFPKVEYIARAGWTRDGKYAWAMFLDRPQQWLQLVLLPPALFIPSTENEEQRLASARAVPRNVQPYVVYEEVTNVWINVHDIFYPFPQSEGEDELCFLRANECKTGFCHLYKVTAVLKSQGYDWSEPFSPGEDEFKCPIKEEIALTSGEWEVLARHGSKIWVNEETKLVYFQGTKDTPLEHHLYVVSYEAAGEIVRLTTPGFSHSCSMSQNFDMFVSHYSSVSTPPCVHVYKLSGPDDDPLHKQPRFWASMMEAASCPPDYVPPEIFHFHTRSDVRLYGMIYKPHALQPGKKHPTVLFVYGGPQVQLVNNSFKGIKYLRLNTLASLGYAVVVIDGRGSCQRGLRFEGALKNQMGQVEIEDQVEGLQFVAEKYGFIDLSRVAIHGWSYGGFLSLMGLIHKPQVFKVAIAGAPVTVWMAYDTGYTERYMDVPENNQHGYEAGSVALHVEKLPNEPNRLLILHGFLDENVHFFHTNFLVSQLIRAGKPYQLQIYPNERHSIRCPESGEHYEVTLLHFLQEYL
UniProt Q15125: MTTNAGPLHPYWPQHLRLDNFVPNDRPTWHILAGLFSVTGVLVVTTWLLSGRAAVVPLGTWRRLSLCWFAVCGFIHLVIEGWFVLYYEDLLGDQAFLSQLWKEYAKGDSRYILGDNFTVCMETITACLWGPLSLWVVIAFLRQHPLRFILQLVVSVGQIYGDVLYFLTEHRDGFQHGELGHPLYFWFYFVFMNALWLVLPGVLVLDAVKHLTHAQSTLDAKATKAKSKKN
UniProt O43598: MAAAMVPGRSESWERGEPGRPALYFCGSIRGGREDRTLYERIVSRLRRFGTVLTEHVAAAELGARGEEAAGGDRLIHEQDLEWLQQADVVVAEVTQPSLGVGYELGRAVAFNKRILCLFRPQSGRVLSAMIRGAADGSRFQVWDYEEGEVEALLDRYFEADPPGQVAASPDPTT
UniProt Q9UNI6, whole entry, looked up: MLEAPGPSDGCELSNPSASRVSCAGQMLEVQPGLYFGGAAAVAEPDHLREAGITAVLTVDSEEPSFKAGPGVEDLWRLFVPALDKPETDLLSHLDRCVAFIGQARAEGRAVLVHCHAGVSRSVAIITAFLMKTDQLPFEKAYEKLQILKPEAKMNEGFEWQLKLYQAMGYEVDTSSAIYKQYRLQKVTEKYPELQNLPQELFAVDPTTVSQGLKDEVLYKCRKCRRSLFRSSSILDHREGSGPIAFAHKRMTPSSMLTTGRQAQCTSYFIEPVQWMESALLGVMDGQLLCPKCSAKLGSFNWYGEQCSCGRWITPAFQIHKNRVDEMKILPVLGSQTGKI
UniProt O60762: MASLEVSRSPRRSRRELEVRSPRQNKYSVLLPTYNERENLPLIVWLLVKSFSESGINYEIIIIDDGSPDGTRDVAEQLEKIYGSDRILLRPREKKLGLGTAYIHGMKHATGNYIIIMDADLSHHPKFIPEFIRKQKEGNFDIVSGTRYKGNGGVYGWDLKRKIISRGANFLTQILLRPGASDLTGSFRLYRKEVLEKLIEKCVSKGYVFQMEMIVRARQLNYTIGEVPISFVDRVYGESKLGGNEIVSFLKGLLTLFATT
UniProt P26358: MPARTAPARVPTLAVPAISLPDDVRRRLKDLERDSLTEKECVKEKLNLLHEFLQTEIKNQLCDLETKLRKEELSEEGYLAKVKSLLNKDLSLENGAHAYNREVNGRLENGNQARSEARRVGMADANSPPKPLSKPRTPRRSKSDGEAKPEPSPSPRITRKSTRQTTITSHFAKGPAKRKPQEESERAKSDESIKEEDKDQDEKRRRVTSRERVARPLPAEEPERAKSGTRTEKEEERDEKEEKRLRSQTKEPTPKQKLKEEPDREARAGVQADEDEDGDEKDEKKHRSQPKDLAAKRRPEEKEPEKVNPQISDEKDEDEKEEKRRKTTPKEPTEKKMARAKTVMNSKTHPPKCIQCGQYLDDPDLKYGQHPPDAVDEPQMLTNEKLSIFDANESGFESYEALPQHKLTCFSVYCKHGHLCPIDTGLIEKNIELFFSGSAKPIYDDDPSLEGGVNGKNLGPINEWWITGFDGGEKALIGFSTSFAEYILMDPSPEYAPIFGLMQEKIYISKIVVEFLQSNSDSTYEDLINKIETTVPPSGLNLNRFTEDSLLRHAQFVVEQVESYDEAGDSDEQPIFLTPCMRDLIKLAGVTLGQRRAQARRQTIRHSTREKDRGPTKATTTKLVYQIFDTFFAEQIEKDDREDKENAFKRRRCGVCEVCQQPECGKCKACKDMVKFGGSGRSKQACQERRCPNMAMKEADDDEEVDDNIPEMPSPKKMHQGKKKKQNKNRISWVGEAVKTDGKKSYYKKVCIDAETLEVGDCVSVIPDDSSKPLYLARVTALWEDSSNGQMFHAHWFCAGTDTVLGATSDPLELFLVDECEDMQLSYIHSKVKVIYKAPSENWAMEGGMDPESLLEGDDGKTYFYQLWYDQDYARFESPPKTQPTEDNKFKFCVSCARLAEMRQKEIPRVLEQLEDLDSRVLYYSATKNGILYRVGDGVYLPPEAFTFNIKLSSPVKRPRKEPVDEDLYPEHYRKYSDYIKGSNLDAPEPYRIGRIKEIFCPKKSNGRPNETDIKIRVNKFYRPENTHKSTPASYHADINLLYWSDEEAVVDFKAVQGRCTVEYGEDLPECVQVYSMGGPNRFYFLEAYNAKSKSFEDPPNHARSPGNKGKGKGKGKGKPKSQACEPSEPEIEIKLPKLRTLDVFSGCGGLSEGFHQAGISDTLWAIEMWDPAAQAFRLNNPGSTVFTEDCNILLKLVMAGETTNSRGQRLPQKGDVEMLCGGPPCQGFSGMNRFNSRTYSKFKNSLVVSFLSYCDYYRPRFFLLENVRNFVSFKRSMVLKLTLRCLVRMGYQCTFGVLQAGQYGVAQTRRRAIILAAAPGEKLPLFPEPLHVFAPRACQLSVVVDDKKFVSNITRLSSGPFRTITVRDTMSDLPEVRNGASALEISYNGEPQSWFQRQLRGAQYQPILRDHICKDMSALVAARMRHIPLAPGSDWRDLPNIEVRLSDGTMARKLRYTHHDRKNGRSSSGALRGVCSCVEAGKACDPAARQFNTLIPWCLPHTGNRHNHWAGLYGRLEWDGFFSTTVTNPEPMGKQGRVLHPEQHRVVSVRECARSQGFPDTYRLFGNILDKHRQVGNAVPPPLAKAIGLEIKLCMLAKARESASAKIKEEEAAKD
UniProt O75190: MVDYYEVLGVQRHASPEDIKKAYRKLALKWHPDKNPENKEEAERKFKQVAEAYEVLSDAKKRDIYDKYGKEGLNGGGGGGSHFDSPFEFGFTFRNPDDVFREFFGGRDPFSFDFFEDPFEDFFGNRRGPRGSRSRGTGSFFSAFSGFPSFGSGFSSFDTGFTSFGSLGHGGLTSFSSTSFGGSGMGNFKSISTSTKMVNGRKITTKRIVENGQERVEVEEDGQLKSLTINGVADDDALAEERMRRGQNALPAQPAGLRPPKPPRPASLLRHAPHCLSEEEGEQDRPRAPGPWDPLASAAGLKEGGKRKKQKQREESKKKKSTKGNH
UniProt O95905: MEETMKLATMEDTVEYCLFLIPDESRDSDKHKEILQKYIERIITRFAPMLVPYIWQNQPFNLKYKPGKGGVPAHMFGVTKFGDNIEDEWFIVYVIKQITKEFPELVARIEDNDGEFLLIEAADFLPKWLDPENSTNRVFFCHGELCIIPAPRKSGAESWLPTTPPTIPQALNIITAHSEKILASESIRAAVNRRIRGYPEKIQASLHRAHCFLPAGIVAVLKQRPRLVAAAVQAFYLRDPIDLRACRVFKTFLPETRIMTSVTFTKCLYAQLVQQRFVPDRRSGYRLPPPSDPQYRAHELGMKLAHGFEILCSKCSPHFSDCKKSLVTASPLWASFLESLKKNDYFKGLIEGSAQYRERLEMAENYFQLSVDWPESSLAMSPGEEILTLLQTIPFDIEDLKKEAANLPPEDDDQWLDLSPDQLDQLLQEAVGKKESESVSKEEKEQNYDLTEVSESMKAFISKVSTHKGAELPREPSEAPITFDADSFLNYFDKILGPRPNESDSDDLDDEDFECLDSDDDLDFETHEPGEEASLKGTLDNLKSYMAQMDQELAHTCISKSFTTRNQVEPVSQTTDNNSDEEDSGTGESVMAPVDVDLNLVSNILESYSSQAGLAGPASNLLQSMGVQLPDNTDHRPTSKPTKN
UniProt Q9NP97, whole entry, looked up: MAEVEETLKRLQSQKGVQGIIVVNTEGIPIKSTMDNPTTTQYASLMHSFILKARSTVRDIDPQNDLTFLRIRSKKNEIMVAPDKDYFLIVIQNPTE
UniProt Q96FJ2, whole entry, looked up: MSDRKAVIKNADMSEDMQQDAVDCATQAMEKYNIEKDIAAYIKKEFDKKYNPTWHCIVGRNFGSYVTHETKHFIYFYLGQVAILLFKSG

How the values were obtained:
Experiment in all cases: log2 fold change, soluble protein after heating vs DMSO (PISA); higher = thermal stabilisation; K562 cells, 10 uM, 30 min; active = over 0.2 and 3.5 SD of the protein, either way, in both replicates (recomputed)
[1] = compound: CS(=O)(=O)c1ccc(-c2cnc(N)c(C(=O)Nc3ccccc3)n2)cc1
Outline: (§1)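 K562 cells at 2×10^6 cells/mL were treated for 30 min with 10 μM compound, and aliquots were heated for 3 min over 48°C-58°C before pooling. Extraction used PBS with 0.5% NP-40 at 4°C, and soluble protein was the supernatant after 21,000xg for 90 min, measured by TMTpro 16plex LC-MS/MS with channel sums equalised. Thermal stability values, relative to control samples and from duplicates, are log2 fold changes.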

crizotinib = compound: C[C@@H](Oc1cc(-c2cnn(C3CCNCC3)c2)cnc1N)c1c(Cl)ccc(F)c1Cl [crizotinib]
Outline: as §1

[2] = compound: C[C@@H]1COCCN1C2=NC(=NC(=C2)C3(CC3)S(=O)(=O)C)C4=C5C=CNC5=CC=C4
Outline: as §1

[3] = compound: C[C@H](C1=CC=C(C=C1)C(=O)NC2=C3C=CNC3=NC=C2)N
Outline: as §1

duvelisib = compound: C[C@H](Nc1ncnc2nc[nH]c12)c1cc2cccc(Cl)c2c(=O)n1-c1ccccc1 [duvelisib]
Outline: as §1

gandotinib = compound: Cc1cc(Nc2cc(CN3CCOCC3)c3nc(C)c(Cc4ccc(Cl)cc4F)n3n2)n[nH]1 [gandotinib]
Outline: as §1

tozasertib = compound: Cc1cc(Nc2cc(N3CCN(C)CC3)nc(Sc3ccc(NC(=O)C4CC4)cc3)n2)n[nH]1 [tozasertib]
Outline: as §1

[4] = compound: Cc1cc(SCc2sc(-c3ccc(C(F)(F)F)cc3)nc2C)ccc1OCC(=O)O
Outline: as §1

doramapimod = compound: Cc1ccc(-n2nc(C(C)(C)C)cc2NC(=O)Nc2ccc(OCCN3CCOCC3)c3ccccc23)cc1 [doramapimod]
Outline: as §1

ispinesib = compound: Cc1ccc(C(=O)N(CCCN)[C@@H](c2nc3cc(Cl)ccc3c(=O)n2Cc2ccccc2)C(C)C)cc1 [ispinesib]
Outline: as §1

bafetinib = compound: Cc1ccc(NC(=O)c2ccc(CN3CC[C@H](N(C)C)C3)c(C(F)(F)F)c2)cc1Nc1nccc(-c2cncnc2)n1 [bafetinib]
Outline: as §1

[5] = compound: Cc1cccc(CC(=O)N2CCc3c2ccc(-c2cn(C)c4ncnc(N)c24)c3F)n1
Outline: as §1

nilotinib = compound: Cc1cn(-c2cc(NC(=O)c3ccc(C)c(Nc4nccc(-c5cccnc5)n4)c3)cc(C(F)(F)F)c2)cn1 [nilotinib]
Outline: as §1

[6] = compound: Cc1nc(Nc2n[nH]c3c2CN(C(=O)N[C@H](CN(C)C)c2ccccc2)C3(C)C)c2sccc2n1
Outline: as §1

dasatinib = compound: Cc1nc(Nc2ncc(C(=O)Nc3c(C)cccc3Cl)s2)cc(N2CCN(CCO)CC2)n1 [dasatinib]
Outline: as §1

[7] = compound: Cc1ncc(-c2ccnc(Nc3ccc(S(C)(=O)=O)cc3)n2)n1C(C)C
Outline: as §1

[8] = compound: Cn1cc(-c2ccc3c(c2)CCN3C(=O)Cc2cccc(C(F)(F)F)c2)c2c(N)ncnc21
Outline: as §1

[9] = compound: Cn1cc(-c2ccc3nnc(C(F)(F)c4ccc5ncccc5c4)n3n2)cn1
Outline: as §1

tipifarnib = compound: Cn1cncc1[C@@](N)(c1ccc(Cl)cc1)c1ccc2c(c1)c(-c1cccc(Cl)c1)cc(=O)n2C [tipifarnib]
Outline: as §1

mubritinib = compound: FC(F)(F)c1ccc(/C=C/c2nc(COc3ccc(CCCCn4ccnn4)cc3)co2)cc1 [mubritinib]
Outline: as §1

Measured: log2 fold change

DNAJC2 (UniProt Q99543)
inactive: [1] -0.007 | crizotinib -0.123 | [2] -0.072 | [3] 0.159 | duvelisib -0.013 | gandotinib -0.007 | tozasertib 0.039 | [4] 0.092 | doramapimod 0.187 | ispinesib -0.168 | bafetinib 0.108 | [5] 0.062 | nilotinib -0.268 | [6] -0.032 | dasatinib -0.109 | [7] 0.024 | [8] 0.004 | [9] -0.026 | tipifarnib -0.082 | mubritinib -0.064

DUS4L (UniProt O95620)
inactive: [1] 0.127 | crizotinib 0.007 | [2] 0.213 | [3] -0.006 | duvelisib 0.029 | gandotinib 0.141 | tozasertib 0.035 | [4] 0.04 | doramapimod -0.041 | ispinesib 0.068 | bafetinib -0.121 | [5] -0.03 | nilotinib -0.02 | [6] 0.053 | dasatinib -0.026 | [7] -0.019 | [8] 0 | [9] 0.014 | tipifarnib 0.065 | mubritinib 0.053

DOCK9 isoform 4 (UniProt Q9BZ29)
inactive: [1] 0.074 | crizotinib -0.002 | [2] -0.05 | [3] 0.121 | duvelisib 0.089 | gandotinib 0.087 | tozasertib 0.083 | [4] 0.014 | doramapimod -0.002 | ispinesib -0.056 | bafetinib 0.012 | [5] 0.113 | nilotinib -0.085 | [6] 0.03 | dasatinib -0.23 | [7] 0.007 | [8] -0.001 | [9] -0.025 | tipifarnib -0.092 | mubritinib 0.064

DPY19L3 (UniProt Q6ZPD9)
inactive: [1] -0.02 | crizotinib 0.087 | [2] -0.15 | [3] -0.07 | duvelisib 0.058 | gandotinib -0.046 | tozasertib 0.022 | [4] -0.015 | doramapimod 0.056 | ispinesib -0.295 | bafetinib -0.07 | [5] 0.019 | nilotinib -0.043 | [6] -0.068 | dasatinib 0.109 | [7] -0.18 | [8] -0.066 | [9] 0.072 | tipifarnib 0.082 | mubritinib -0.047

DPP9 isoform 2 (UniProt Q86TI2)
inactive: [1] 0.042 | crizotinib -0.035 | [2] 0.016 | [3] 0.005 | duvelisib 0.05 | gandotinib -0.088 | tozasertib -0.072 | [4] 0.051 | doramapimod 0.044 | ispinesib -0.119 | bafetinib -0.01 | [5] 0.046 | nilotinib -0.001 | [6] -0.001 | dasatinib -0.041 | [7] -0.047 | [8] 0.105 | [9] 0.013 | tipifarnib -0.077 | mubritinib 0.09

DRG2 (UniProt P55039)
inactive: [1] 0.014 | crizotinib 0.046 | [2] 0.037 | [3] -0.03 | duvelisib 0.064 | gandotinib -0.027 | tozasertib 0.026 | [4] 0.017 | doramapimod -0.03 | ispinesib 0.076 | bafetinib -0.044 | [5] -0.008 | nilotinib 0 | [6] -0.005 | dasatinib -0.027 | [7] 0.017 | [8] 0.056 | [9] 0.02 | tipifarnib -0.024 | mubritinib 0.028

EBP (UniProt Q15125)
inactive: [1] -0.022 | crizotinib 0.063 | [2] 0.34 | [3] -0.088 | duvelisib -0.006 | gandotinib 0.018 | tozasertib 0.043 | [4] 0.044 | doramapimod -0.014 | ispinesib 0.235 | bafetinib -0.018 | [5] -0.011 | nilotinib -0.064 | [6] 0.07 | dasatinib 0.004 | [7] -0.028 | [8] 0.063 | [9] 0.1 | tipifarnib 0.005 | mubritinib -0.044

Taken from the entries so far (2 entries):
DPY19L3 (UniProt Q6ZPD9)
inactive: [1] -0.02 | crizotinib 0.087 | [2] -0.15 | [3] -0.07 | duvelisib 0.058 | gandotinib -0.046 | tozasertib 0.022 | [4] -0.015 | doramapimod 0.056 | ispinesib -0.295 | bafetinib -0.07 | [5] 0.019 | nilotinib -0.043 | [6] -0.068 | dasatinib 0.109 | [7] -0.18 | [8] -0.066 | [9] 0.072 | tipifarnib 0.082 | mubritinib -0.047

DPP9 isoform 2 (UniProt Q86TI2)
inactive: [1] 0.042 | crizotinib -0.035 | [2] 0.016 | [3] 0.005 | duvelisib 0.05 | gandotinib -0.088 | tozasertib -0.072 | [4] 0.051 | doramapimod 0.044 | ispinesib -0.119 | bafetinib -0.01 | [5] 0.046 | nilotinib -0.001 | [6] -0.001 | dasatinib -0.041 | [7] -0.047 | [8] 0.105 | [9] 0.013 | tipifarnib -0.077 | mubritinib 0.09

(listing goes on)

DNPH1 (UniProt O43598)
inactive: [1] 0.049 | crizotinib 0.021 | [2] -0.099 | [3] -0.045 | duvelisib 0 | gandotinib 0.042 | tozasertib -0.006 | [4] 0.019 | doramapimod -0.042 | ispinesib 0.12 | bafetinib -0.028 | [5] 0 | nilotinib 0.024 | [6] -0.012 | dasatinib -0.01 | [7] 0.056 | [8] 0.056 | [9] 0.008 | tipifarnib 0.02 | mubritinib 0.008

DUSP12 (UniProt Q9UNI6)
inactive: [1] 0.085 | crizotinib -0.168 | [2] 0.158 | [3] -0.019 | duvelisib 0.029 | gandotinib 0.095 | tozasertib 0.039 | [4] 0.06 | doramapimod 0.047 | ispinesib 0.05 | bafetinib -0.016 | [5] -0.079 | nilotinib 0.03 | [6] -0.03 | dasatinib -0.027 | [7] -0.006 | [8] 0.006 | [9] 0.002 | tipifarnib -0.045 | mubritinib 0.039

DPM1 (UniProt O60762)
inactive: [1] 0.079 | crizotinib -0.053 | [2] 0.059 | [3] -0.014 | duvelisib 0.001 | gandotinib -0.065 | tozasertib 0.008 | [4] -0.017 | doramapimod -0.031 | ispinesib -0.061 | bafetinib -0.024 | [5] -0.003 | nilotinib 0.065 | [6] 0.081 | dasatinib 0.036 | [7] -0.037 | [8] 0.002 | [9] 0.002 | tipifarnib -0.008 | mubritinib 0.012

DNMT1 isoform 2 (UniProt P26358)
inactive: [1] 0.023 | crizotinib 0.078 | [2] 0.021 | [3] -0.056 | duvelisib 0.014 | gandotinib -0.022 | tozasertib 0.019 | [4] 0.013 | doramapimod -0.014 | ispinesib 0.097 | bafetinib -0.008 | [5] 0.016 | nilotinib 0.002 | [6] 0.002 | dasatinib -0.01 | [7] 0.005 | [8] 0.036 | [9] -0.004 | tipifarnib -0.009 | mubritinib 0.007

DNAJB6 (UniProt O75190)
inactive: [1] 0 | crizotinib 0.017 | [2] -0.066 | [3] 0.031 | duvelisib -0.045 | gandotinib -0.074 | tozasertib -0.118 | [4] 0.033 | doramapimod -0.034 | ispinesib -0.037 | bafetinib -0.03 | [5] 0.032 | nilotinib 0.054 | [6] 0.002 | dasatinib 0.044 | [7] -0.026 | [8] -0.057 | [9] 0.04 | tipifarnib -0.059 | mubritinib -0.008

ECD isoform 3 (UniProt O95905)
inactive: [1] -0.015 | crizotinib -0.114 | [2] 0.032 | [3] 0.355 | duvelisib -0.123 | gandotinib 0.062 | tozasertib 0.083 | [4] 0.145 | doramapimod 0.157 | ispinesib -0.166 | bafetinib 0.025 | [5] 0.037 | nilotinib 0.13 | [6] -0.039 | dasatinib -0.18 | [7] -0.103 | [8] -0.015 | [9] -0.067 | tipifarnib -0.08 | mubritinib 0.033

DYNLRB1 (UniProt Q9NP97)
inactive: [1] 0.03 | crizotinib 0.087 | [2] 0.108 | [3] -0.108 | duvelisib 0.065 | gandotinib 0.089 | tozasertib 0.008 | [4] -0.029 | doramapimod 0.025 | ispinesib 0.079 | bafetinib 0.031 | [5] -0.09 | nilotinib 0.051 | [6] 0.014 | dasatinib 0.043 | [7] 0.009 | [8] 0.1 | [9] 0.083 | tipifarnib -0.036 | mubritinib 0.037

DYNLL2 (UniProt Q96FJ2)
inactive: [1] 0.068 | crizotinib 0.162 | [2] 0.075 | [3] -0.093 | duvelisib 0.036 | gandotinib 0.095 | tozasertib 0.011 | [4] 0.037 | doramapimod -0.106 | ispinesib 0.043 | bafetinib -0.047 | [5] -0.03 | nilotinib 0.008 | [6] -0.044 | dasatinib 0.023 | [7] 0.013 | [8] 0.214 | [9] 0.041 | tipifarnib -0.228 | mubritinib 0.027

DNPEP (UniProt Q9ULA0)
inactive: [1] -0.011 | crizotinib 0.007 | [2] 0.029 | [3] -0.013 | duvelisib 0.039 | gandotinib 0.014 | tozasertib -0.039 | [4] -0.02 | doramapimod 0.006 | ispinesib 0.021 | bafetinib 0.003 | [5] 0.017 | nilotinib 0 | [6] 0.02 | dasatinib 0.016 | [7] 0.001 | [8] 0.019 | [9] 0.027 | tipifarnib -0.026 | mubritinib 0.025
